Results are given in words; binding and its absence hold for the method and conditions named. Binding calls can cover weak binding; strength is not graded here. For some of these results: In cells and extracts the contact can be indirect.

One assay has as its target T1, rat CARTp55-102 (rat) (UniProt P49192).
T1 sequence (peptide): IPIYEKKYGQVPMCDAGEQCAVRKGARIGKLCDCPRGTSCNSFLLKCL
Put plainly: co-IP; INS-1 832/13 cell lysates incubated with 10^-7 M CARTp55-102 for 30 min at 4°C, cross-linked with 1 mM BS3 for 30 min at room temperature, precipitated with biotin-labelled CART antibody on streptavidin Dynabeads; blot for GPR162; controls without peptide and without antibody; only the target purified.

The target in assay [1] is GPR162 (rat (endogenous in INS-1 832/13)). The assay is described as follows: radioligand binding; INS-1 cells in 24-well plates, control or Gpr162 siRNA; 10–15 'p.m.' (so in the source) 125I-CARTp55-102, 3 h at 4°C, 50 mM HEPES pH 7.4, 1 mM CaCl2, 5 mM MgCl2, 0.5% BSA; non-specific binding with 0.1 μM unlabeled CARTp55-102; binding 25% lower after Gpr162 KD; only the binder purified.

For assay [2] the target is unchanged. The assay is described as follows: proximity ligation; INS-1 832/13 cells incubated with 10^-7 M rat CARTp55-102 for 5 min at 37°C, fixed, permeabilised; DuoLink Goat/Rabbit with anti-CART and an anti-receptor antibody; control or Gpr162 siRNA (90% lower CART-GPR162 signal after KD); only the binder purified.
Assay [3] has the same target. Put plainly: proximity ligation; INS-1 832/13 cells, fixed and permeabilised; DuoLink Goat/Rabbit with rabbit anti-GNA13 and goat anti-GPR162.

In the case of “GPR162 (rat (endogenous in INS-1 832/13)) (receptor)”, the binding entry with rat CARTp55-102 (rat) is reported as “binds”.
In the case of IPIYEKKYGQVPMCDAGEQCAVRKGARIGKLCDCPRGTSCNSFLLKCL (peptide, UniProt P49192 82-129, 125I in the meta-position of tyrosine side chains) [^125I-CARTp55-102], the binding entry in assay [1] is listed as “binds”.
As for IPIYEKKYGQVPMCDAGEQCAVRKGARIGKLCDCPRGTSCNSFLLKCL (peptide, UniProt P49192 82-129) [rat CARTp55-102], the binding entry in assay [2] was “binds”.

B1: G protein alpha 13 (protein, UniProt Q6Q7Y5 1-377)
chain: MADFLPSRSVLSVCFPGCVLTNGEAEQQRKSKEIDKCLSREKTYVKRLVKILLLGAGESGKSTFLKQMRIIHGQDFDQRAREEFRPTIYSNVIKGMRVLVDAREKLHIPWGDNKNQVHGDKLMAFDTRAPMAAQGMVETRVFLQYLPAIRALWDDSGIQNAYDRRREFQLGESVKYFLDNLDKLGVPDYIPSQQDILLARRPTKGIHEYDFEIKNVPFKMVDVGGQRSERKRWFECFDSVTSILFLVSSSEFDQVLMEDRLTNRLTESLNIFETIVNNRVFSNVSIILFLNKTDLLEEKVQVVSIKDYFLEFEGDPHCLRDVQKFLVECFRGKRRDQQQRPLYHHFTTAINTENIRLVFRDVKDTILHDNLKQLMLQ
Consider B1, for which the binding entry in assay [3] was “binds”.
